Reference: article PMC11633749, “Identification of the Wnt signal peptide that directs secretion on extracellular vesicles” (Science Advances, 2024)
No constants are given. Whether binding was seen depends on the method and setting. In cells and extracts the contact can be indirect. A yes stands for co-enrichment or nearness to the bait. Other partners may have been found. For some of these results: A no says only that the protein was not detected with the bait. Where a sequence is shown, tags or fusion partners need not be part of it. One block for each molecule: values may come before it.

Amino acid sequences for entries named in this document (tags omitted).
UniProt P53621: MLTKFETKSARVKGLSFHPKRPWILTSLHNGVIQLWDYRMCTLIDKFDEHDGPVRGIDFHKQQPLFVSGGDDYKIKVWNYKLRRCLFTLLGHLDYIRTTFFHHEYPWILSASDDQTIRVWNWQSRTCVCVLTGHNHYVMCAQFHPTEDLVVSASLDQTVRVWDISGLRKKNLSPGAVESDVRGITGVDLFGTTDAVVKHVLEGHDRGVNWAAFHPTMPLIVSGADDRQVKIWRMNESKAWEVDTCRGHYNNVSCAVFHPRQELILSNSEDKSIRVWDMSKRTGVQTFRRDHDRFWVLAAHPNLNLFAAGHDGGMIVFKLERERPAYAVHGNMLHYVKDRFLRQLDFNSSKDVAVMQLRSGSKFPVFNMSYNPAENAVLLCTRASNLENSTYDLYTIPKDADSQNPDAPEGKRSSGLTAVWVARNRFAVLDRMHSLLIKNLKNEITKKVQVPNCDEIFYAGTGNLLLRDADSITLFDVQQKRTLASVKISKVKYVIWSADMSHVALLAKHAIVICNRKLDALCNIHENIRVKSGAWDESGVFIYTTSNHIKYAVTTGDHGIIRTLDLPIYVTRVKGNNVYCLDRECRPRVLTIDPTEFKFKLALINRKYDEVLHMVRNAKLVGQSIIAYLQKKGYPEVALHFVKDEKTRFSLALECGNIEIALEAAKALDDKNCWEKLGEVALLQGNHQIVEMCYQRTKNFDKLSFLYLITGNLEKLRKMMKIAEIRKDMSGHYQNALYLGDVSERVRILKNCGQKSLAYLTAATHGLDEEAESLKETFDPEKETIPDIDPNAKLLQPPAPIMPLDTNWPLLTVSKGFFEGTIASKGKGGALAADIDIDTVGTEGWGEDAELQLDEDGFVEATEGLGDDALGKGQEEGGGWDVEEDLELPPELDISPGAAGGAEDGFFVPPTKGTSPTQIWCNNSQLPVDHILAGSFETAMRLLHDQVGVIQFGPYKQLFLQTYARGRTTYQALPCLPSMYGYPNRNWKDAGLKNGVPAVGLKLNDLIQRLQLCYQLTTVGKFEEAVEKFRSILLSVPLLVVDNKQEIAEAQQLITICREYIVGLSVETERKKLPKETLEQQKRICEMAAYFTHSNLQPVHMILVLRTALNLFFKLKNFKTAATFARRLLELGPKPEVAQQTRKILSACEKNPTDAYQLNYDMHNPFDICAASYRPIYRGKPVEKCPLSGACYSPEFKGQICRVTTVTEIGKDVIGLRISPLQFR

How the values were obtained:
[1] = molecular target: T1, full-length Wnt7a-HA (Wnt7a-FL) (human) (UniProt O00755); test: affinity purification with mass spectrometry; anti-HA immunoprecipitates from lysed EVs of Wnt7a-HA-expressing HEK293T cells; mass spectrometry
T1 sequence: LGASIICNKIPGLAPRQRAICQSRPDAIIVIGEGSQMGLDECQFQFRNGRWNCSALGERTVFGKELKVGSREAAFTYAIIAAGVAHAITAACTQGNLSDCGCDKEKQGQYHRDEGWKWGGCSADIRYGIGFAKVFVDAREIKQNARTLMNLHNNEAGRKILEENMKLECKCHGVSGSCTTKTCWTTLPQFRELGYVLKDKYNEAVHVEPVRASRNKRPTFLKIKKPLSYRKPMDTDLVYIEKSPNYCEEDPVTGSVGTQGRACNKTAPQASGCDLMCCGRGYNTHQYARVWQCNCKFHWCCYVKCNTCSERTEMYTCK

[2] = molecular target: T2, myc-tagged EBP-BirA (human); test: proximity labelling; BioID in stable mouse primary myoblasts expressing BioID2 fusions; 50 μM biotin 18 hours; streptavidin beads; mass spectrometry; enrichment against BirA alone
T2 sequence: PVRASRNKRPTFLKIKKP

[3] = molecular target: T3, myc-tagged Wnt7a-BirA (UniProt O00755); test: as above
T3 sequence: T1 sequence

Molecule: COPA (coatomer protein), human (from UniProt P53621 1-1224)
binding [1]: binds

B1: COPB2 (coatomer protein), human (protein, UniProt P35606 1-906)
chain: MPLRLDIKRKLTARSDRVKSVDLHPTEPWMLASLYNGSVCVWNHETQTLVKTFEVCDLPVRAAKFVARKNWVVTGADDMQIRVFNYNTLERVHMFEAHSDYIRCIAVHPTQPFILTSSDDMLIKLWDWDKKWSCSQVFEGHTHYVMQIVINPKDNNQFASASLDRTIKVWQLGSSSPNFTLEGHEKGVNCIDYYSGGDKPYLISGADDRLVKIWDYQNKTCVQTLEGHAQNVSCASFHPELPIIITGSEDGTVRIWHSSTYRLESTLNYGMERVWCVASLRGSNNVALGYDEGSIIVKLGREEPAMSMDANGKIIWAKHSEVQQANLKAMGDAEIKDGERLPLAVKDMGSCEIYPQTIQHNPNGRFVVVCGDGEYIIYTAMALRNKSFGSAQEFAWAHDSSEYAIRESNSIVKIFKNFKEKKSFKPDFGAESIYGGFLLGVRSVNGLAFYDWDNTELIRRIEIQPKHIFWSDSGELVCIATEESFFILKYLSEKVLAAQETHEGVTEDGIEDAFEVLGEIQEIVKTGLWVGDCFIYTSSVNRLNYYVGGEIVTIAHLDRTMYLLGYIPKDNRLYLGDKELNIISYSLLVSVLEYQTAVMRRDFSMADKVLPTIPKEQRTRVAHFLEKQGFKQQALTVSTDPEHRFELALQLGELKIAYQLAVEAESEQKWKQLAELAISKCQFGLAQECLHHAQDYGGLLLLATASGNANMVNKLAEGAERDGKNNVAFMSYFLQGKVDACLELLIRTGRLPEAAFLARTYLPSQVSRVVKLWRENLSKVNQKAAESLADPTEYENLFPGLKEAFVVEEWVKETHADLWPAKQYPLVTPNEERNVMEEGKDFQPSRSTAQQELDGKPASPTPVIVASHTANKEEKSLLELEVDLDNLELEDIDTTDINLDEDILDD
binding [1]: binds

B2: COPB2 (coatomer protein), mouse (protein, UniProt O55029 1-905)
chain: MPLRLDIKRKLTARSDRVKSVDLHPTEPWMLASLYNGSVCVWNHETQTLVKTFEVCDLPVRAAKFVARKNWVVTGADDMQIRVFNYNTLERVHMFEAHSDYIRCIAVHPTQPFILTSSDDMLIKLWDWDKKWSCSQVFEGHTHYVMQIVINPKDNNQFASASLDRTIKVWQLGSSSPNFTLEGHEKGVNCIDYYSGGDKPYLISGADDRLVKIWDYQNKTCVQTLEGHAQNVSCASFHPELPIIITGSEDGTVRIWHSSTYRLESTLNYGMERVWCVASLRGSNNVALGYDEGSIIVKLGREEPAMSMDANGKIIWAKHSEVQQANLKAMGDTEIKDGERLPLAVKDMGSCEIYPQTIQHNPNGRFVVVCGDGEYIIYTAMALRNKSFGSAQEFAWAHDSSEYAIRESNSIVKIFKNFKEKKSFKPDFGAESIYGGFLLGVRSVNGLAFYDWENTELIRRIEIQPKHIFWSDSGELVCIATEESFFILKYLSEKVLAAQETHEGVTEDGIEDAFEVLGEIQEIVKTGLWVGDCFIYTSSVNRLNYYVGGEIVTIAHLDRTMYLLGYIPKDNRLYLGDKELNIVSYSLLVSVLEYQTAVMRRDFSMADKVLPTIPKEQRTRVAHFLEKQGFKQQALTVSTDPEHRFELALQLGELKIAYQLAVEAESEQKWKQLAELAISKCQFSLAQECLHHAQDYGGLLLLATASGNASMVNKLAEGAERDGKNNVAFMSYFLQGKLDACLELLIRTGRLPEAAFLARTYLPSQVSRVVKLWRENLSKVNQKAAESLADPTEYENLFPGLKEAFVVEEWVKETHADLWPAKQYPLVTPNEERNVMEEAKGFQPSRPTAQQEPDGKPASSPVIMASQTTHKEEKSLLELEVDLDNLELEDIDTTDINLDEDILDD
binding [2]: binds
binding [3]: binds

Second part, the molecule after the results:

binding [2]: no binding
binding [3]: no binding
B3: Reck (protein, UniProt Q9Z0J1 23-942)
chain: EVTGGLAPGSAGAVCCNHSKDNQMCRDVCEQIFSSKSESRLKHLLQRAPDYCPETMVEIWSCMNSSLPGVFKKSDGWVGLGCCELAIGLECRQACKQASSKNDISKVCRKEYENALFSCISRNEMGSVCCSYAGHHTNCREFCQAIFRTDSSPGPSQIKAVENYCASISPQLIHCVNNYTQSYPMRNPTDSLYCCDRAEDHACQNACKRILMSKKTEMEIVDGLIEGCKTQPLPQDPLWQCFLESSQSVHPGVTVHPPPSTGLDGAKLHCCSKANTSTCRELCTKLYSMSWGNTQSWQEFDRICEYNPVEVSMLTCLADVREPCQLGCTNLTYCTNFNNRPTELFRSCTAQSDQGAMSDMKLWEKGSIKMPFISIPVLDIKTCQPEMWKAVACSLQIKPCHSKSRGSIICKSDCVEILKKCGDQNKFPEEHTAESICEFLSPADDLESCIPLDTYLRPSALGNIIEEVTHPCNPNPCPANELCEVNRKGCPSADPCLPYSCVQGCKLGEASDFIVRQGTLIQVPSSAGEVGCYKICSCGQSGLLENCMEMHCIDLQKSCIVGGKRKSHGTSFTIDCNVCSCFAGNLVCSTRLCLSEHSSDDDRRTFTGLPCNCADQFVPVCAQNGRTYPSACIARCVGLQDHQFEFGPCISKNPCNPNLCPKSQRCVPKPQVCLTTFDKFGCSQYECVPRQLTCDQARDPVCDTDHMEHSNLCTLYQRGKSLSYRGPCQPFCRAKEPVCGHNGETYSSVCAAYSDRVAVDYYGPCQAVGVLSEYSAVAECAAVKCPSLSAIGCKPIIPPGACCPLCAGMLRVLFDKEKLDTIAKVTSKKPITVVEILQKVRMHVSVPQCDVFGYLSIESEIVILIIPVDHYPKALQIEACNKEAEKIESLINSDSPTLASHVPLSALIISQVQVSSSLPS

binding [3]: no binding
B4: WLS (protein, UniProt Q6DID7 1-541)
chain: MAGAIIENMSTKKLCIVGGILLVFQIVAFLVGGLIAPAPTTAVPYTAIKCVDVRKNHHKTRWLAPWGPNKCDKIRDIEEAIPREIEANDIVFSVHIPLPSMEMSPWFQFMLFILQLDIAFKLNNQIRENAEISMDVSLGYRDDMFSEWTEMAHERVPRKLKCTFTSPKTPEHEGRYYNCDVLPFMEIGSVAHKYYLLNIRLPVNEKKKINVGIGEIKDIRLVGIHQNGGFTKVWFAMKTFLTPSIFIIMVWYWRRITMMSRPPVLLEKVIFALGISMTFINIPVEWFSIGFDWTWMLLFGDIRQGIFYAMLLSFWIIFCGEHMMDQHERNHIAGYWKQVGPIAVGSFCLFIFDMCERGVQLTNPFYSIWTTDVGTELAMAFIIVAGICLCLYFLFLCFMVFQVFRNISGKQSSLPAMSKVRRLHYEGLIFRFKFLMLITLACAAMTVIFFIVSQVSEGHWKWGGVTVQVSSAFFTGIYGMWNLYVFALMFLYAPSHKNYGEDQSNGDLGVHSGEELQLTTTITHVDGPTEIYKLTRKEAQE
